Measurements taken from patent US20060088897A1, “Modulators” (priority 2003, published 2006).
These are yes or no findings as the source states them, for the method shown. Some entries that bind do so weakly or less than the wild type.

The chains behind the UniProt entries cited, without tags or fusion partners. Where a name states a change or a piece, a line headed by the entry shows the natural chain unless it says otherwise.
UniProt Q13153: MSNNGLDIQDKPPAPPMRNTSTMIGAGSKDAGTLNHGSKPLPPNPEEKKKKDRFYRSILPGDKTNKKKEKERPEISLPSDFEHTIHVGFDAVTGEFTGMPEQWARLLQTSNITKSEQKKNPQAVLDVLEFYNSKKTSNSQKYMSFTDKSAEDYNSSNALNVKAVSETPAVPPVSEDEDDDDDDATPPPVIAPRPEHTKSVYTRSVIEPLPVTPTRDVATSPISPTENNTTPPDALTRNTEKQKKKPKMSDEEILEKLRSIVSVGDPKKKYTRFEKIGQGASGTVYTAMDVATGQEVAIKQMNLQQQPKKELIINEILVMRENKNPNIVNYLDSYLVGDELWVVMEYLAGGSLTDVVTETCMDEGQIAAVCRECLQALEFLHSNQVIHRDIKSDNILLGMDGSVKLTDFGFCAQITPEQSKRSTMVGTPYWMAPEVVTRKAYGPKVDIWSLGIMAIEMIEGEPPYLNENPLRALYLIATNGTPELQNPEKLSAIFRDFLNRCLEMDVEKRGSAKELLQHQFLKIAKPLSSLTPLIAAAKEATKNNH
UniProt O75914: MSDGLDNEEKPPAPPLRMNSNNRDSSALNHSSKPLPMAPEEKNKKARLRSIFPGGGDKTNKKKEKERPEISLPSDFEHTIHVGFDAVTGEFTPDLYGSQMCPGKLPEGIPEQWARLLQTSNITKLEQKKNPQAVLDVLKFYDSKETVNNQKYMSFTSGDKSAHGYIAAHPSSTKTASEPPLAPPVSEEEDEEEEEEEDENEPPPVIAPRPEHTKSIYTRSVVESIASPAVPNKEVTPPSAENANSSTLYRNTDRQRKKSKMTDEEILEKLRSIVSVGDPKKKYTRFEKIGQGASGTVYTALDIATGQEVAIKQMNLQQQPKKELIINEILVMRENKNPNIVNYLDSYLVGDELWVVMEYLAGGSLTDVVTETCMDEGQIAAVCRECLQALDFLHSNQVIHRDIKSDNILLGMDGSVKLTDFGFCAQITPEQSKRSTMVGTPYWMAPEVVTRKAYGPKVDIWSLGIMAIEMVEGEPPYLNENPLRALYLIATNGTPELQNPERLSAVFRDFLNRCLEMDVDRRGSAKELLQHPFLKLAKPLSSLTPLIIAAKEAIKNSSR
UniProt Q13177: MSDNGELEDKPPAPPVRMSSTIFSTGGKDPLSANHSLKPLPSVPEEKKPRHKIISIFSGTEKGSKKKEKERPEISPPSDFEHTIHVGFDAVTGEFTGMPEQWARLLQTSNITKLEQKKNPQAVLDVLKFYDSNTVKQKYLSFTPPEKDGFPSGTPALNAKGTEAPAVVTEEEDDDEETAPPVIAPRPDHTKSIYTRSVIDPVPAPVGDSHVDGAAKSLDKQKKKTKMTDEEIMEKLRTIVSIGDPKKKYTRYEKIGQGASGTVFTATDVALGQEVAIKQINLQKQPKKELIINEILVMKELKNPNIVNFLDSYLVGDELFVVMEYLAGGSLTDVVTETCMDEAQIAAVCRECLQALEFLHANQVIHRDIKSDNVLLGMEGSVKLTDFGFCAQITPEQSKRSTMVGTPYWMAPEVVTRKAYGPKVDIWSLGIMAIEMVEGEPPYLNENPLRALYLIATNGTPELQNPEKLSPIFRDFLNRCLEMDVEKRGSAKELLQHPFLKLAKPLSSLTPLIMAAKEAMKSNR
UniProt P60953: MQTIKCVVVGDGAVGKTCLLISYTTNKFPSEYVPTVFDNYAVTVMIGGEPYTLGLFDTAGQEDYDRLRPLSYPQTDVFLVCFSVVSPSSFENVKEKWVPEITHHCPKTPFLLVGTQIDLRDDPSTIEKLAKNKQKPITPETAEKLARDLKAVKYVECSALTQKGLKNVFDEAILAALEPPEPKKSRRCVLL

Key:
[1] = biological target: αPAK purified from neutrophil cytosol (64/68 kDa bands) (Homo sapiens (Human)) (UniProt Q13153); assay: far-Western overlay, [γ32P]GTP-labelled probe on nitrocellulose filter
[2] = biological target: βPAK purified from neutrophil cytosol (65 kDa band) (Homo sapiens (Human)) (UniProt O75914); assay: as above
[3] = biological target: γPAK purified from neutrophil cytosol (62 kDa band) (Homo sapiens (Human)) (UniProt Q13177); assay: as above
[4] = biological target: γPAK purified from neutrophil cytosol (62 kDa band) (Homo sapiens (Human)) (UniProt Q13177); assay: far-Western overlay and Cdc42Hs-GST affinity chromatography; band identified by peptide sequencing

binding [1]: binds | binding [2]: binds | binding [3]: binds | binding [4]: binds
Substance: Cdc42Hs [γ32P]GTP-labelled probe (from UniProt P60953 1-191)
